{
  "source": "PubChem BioAssay AID540256",
  "about": "(National Center for Advancing Translational Sciences (NCATS), 2011)",
  "note": "In all, about 300,000 compounds went through this assay and about 3,700 (1.2%) were called active. This list was built around the results that the source calls inconclusive (neither active nor inactive); the mix of calls is not that of the screen. Calls follow the shape of the full dose curve; tested in HEK293 cells. A potency beside an inconclusive call is a rough fit, not a confirmed value. Potency is read from the fitted curve at half-maximal effect.",
  "data": [
    {"assay": "qHTS for Inhibitors of binding or entry into cells for Lassa Virus; also: nearly all actives have a fitted effect of over 50% in size", "conditions": "Lassa virus pseudotype entry inhibition, cell reporter; series mostly up to 37.9 µM", "values": [
      {"compound": "O=C(NCCO)/C(=C\\c1ccc(Br)cc1)NC(=O)c1cccs1", "Potency": "inconclusive: 1.84 µM [inhibitor, partial curve, poor fit]"},
      {"compound": "O=C(Cn1cc(S(=O)(=O)Cc2cccc(Cl)c2)c2ccccc21)NCCc1ccccc1", "Potency": "inactive"},
      {"compound": "Cc1cc(NC(=O)/C=C/C(=O)N(CC(=O)NC2CCCC2)c2ccc(F)cc2)no1", "Potency": "inconclusive: 11.2 µM [inhibitor, partial curve, poor fit]"},
      {"compound": "CCCc1nn2c(=O)cc(COC(=O)c3cccc(NC(=O)COc4ccccc4C)c3)nc2s1", "Potency": "inconclusive: 6.31 µM [activator, full curve, poor fit]"},
      {"compound": "Cc1ccccc1C(=O)O/N=C(\\N)c1ccncc1", "Potency": "inconclusive: 25.1 µM [inhibitor, partial curve, poor fit]"},
      {"compound": "CC1C(c2ccccc2)N(C)C(c2ccccc2)CC1(O)c1ccc(F)cc1", "note": "(stereo not given)", "Potency": "inconclusive: 35.5 µM [inhibitor, single point]"},
      {"compound": "Cc1[nH]c(=O)[nH]c(=O)c1S(=O)(=O)N1CCC(C(=O)N2CCN(c3cccc(C(F)(F)F)c3)CC2)CC1", "Potency": "inactive"},
      {"compound": "COc1ccc(C2=C(C=Nc3c(C)n(C)n(-c4ccccc4)c3=O)C(c3ccccc3C)c3ccccc3O2)cc1OC", "note": "(stereo not given)", "Potency": "inconclusive: 1 µM [inhibitor, partial curve, poor fit]"},
      {"compound": "CCc1cc(-c2cnnn2CCc2c[nH]c3ccccc23)ccc1-c1cn(CC(C)C)nn1", "Potency": "active: 7.91 µM"},
      {"compound": "Cc1nc2ccsc2c(=O)n1-c1cccc(Cl)c1", "Potency": "inactive"},
      {"compound": "O=C(C1CCCC1)N1CCN(S(=O)(=O)c2cccc(Cl)c2Cl)CC1", "Potency": "inconclusive: 4.47 µM [inhibitor, full curve]"},
      {"compound": "CCCOc1ccc(C(CC(=O)O)NC(=O)CC(c2ccccc2)c2ccccc2)cc1", "note": "(stereo not given)", "Potency": "inconclusive: 10 µM [inhibitor, partial curve, poor fit]"},
      {"compound": "CC(=O)Nc1cccc(NS(=O)(=O)Cc2ccc(Cl)cc2)c1", "Potency": "inactive"},
      {"compound": "CCOC(=O)c1sc(NC(=O)Nc2ccc(Cl)cc2)nc1C", "Potency": "inconclusive: 2.06 µM [activator, partial curve, poor fit]"},
      {"compound": "CCc1ccccc1N=C1S/C(=C/c2ccccc2OCC(=O)N2CCOCC2)C(=O)N1C", "Potency": "active: 14.6 µM"},
      {"compound": "CN1/C(=C\\C=N\\O)C(C)(C)c2ccccc21", "Potency": "inconclusive: 14.1 µM [activator, partial curve, poor fit]"},
      {"compound": "O=C(CCCCn1c(=O)c2ccccc2n(Cc2ccc(Cl)cc2)c1=O)NCc1ccco1", "Potency": "inconclusive: 4.47 µM [inhibitor, partial curve]"},
      {"compound": "COc1ccc2c(c1)C(C)CC(C)(C)N2C(=O)NC1CCCCC1", "note": "(stereo not given)", "Potency": "inconclusive: 25.1 µM [inhibitor, single point]"},
      {"compound": "CCN(CC)C(=O)CSC1=N/C(=C/c2ccco2)C(=O)N1c1ccc(OC)c(Cl)c1", "Potency": "inconclusive: 10 µM [inhibitor, partial curve, poor fit]"},
      {"compound": "COCCN(Cc1cc2cc3c(cc2n2nnnc12)OCO3)C(=O)c1ccccc1F", "Potency": "inactive"},
      {"compound": "Cn1c2c(c(=O)n(C)c1=O)C(C(F)(F)F)(C(F)(F)F)N=C(c1ccc(Cl)cc1)N2", "Potency": "active: 2.82 µM"},
      {"compound": "CCc1ccc(OCC(=O)Nc2cc3oc4ccccc4c3cc2OC)cc1", "Potency": "inactive"},
      {"compound": "CC(NC(=O)/C(C#N)=C/c1cn[nH]c1-c1ccccc1)c1ccccc1", "note": "(stereo not given)", "Potency": "active: 11.2 µM"},
      {"compound": "COc1cccc(/C=C(/C(=O)OCC(=O)NC2CCCC(C)C2C)c2ccccc2)c1", "note": "(stereo not given)", "Potency": "inconclusive: 11.2 µM [inhibitor, single point]"},
      {"compound": "O=C(COc1ccccc1Cl)NCC1(N2CCOCC2)CCCCC1", "Potency": "inactive"},
      {"compound": "COc1cc(OC)c(NC(=O)C2CCCN(c3ncnc4c3nc3n4CCCCC3)C2)cc1Cl", "note": "(stereo not given)", "Potency": "inconclusive: 2.82 µM [inhibitor, partial curve, poor fit]"},
      {"compound": "CC(/C=C1\\SC(=S)N(CC(=O)N2CCN(c3ccccc3)CC2)C1=O)=C\\c1ccccc1", "Potency": "inconclusive: 8.91 µM [activator, partial curve, poor fit]"},
      {"compound": "COc1ccc(C(=O)C2CCCN(Cc3ccc(C)s3)C2)c(OC)c1", "note": "(stereo not given)", "Potency": "inconclusive: 17.8 µM [inhibitor, partial curve, poor fit]"},
      {"compound": "CCc1ccccc1NC(=O)Cn1c(=O)n(Cc2ccc3c(c2)OCO3)c(=O)c2ccc(C(=O)NC3CCCCC3)cc21", "Potency": "inactive"},
      {"compound": "O=C(/C(=N/N=C/c1ccc(O)c(O)c1)c1ccccc1)c1ccccc1", "Potency": "inconclusive: 11.2 µM [inhibitor, single point]"},
      {"compound": "Cc1ccc(N(C(=O)c2snc(C(N)=O)c2N)C(C(=O)NC2CCCC2)c2ccco2)cc1", "note": "(stereo not given)", "Potency": "inconclusive: 35.5 µM [inhibitor, partial curve, poor fit]"},
      {"compound": "Cc1ccnc(SCc2ccc(C(=O)O)cc2)n1", "Potency": "inactive"},
      {"compound": "Cc1cc2nnc(SCC(=O)Nc3ccc(F)c(Cl)c3)n2c2ccccc12", "Potency": "inactive"},
      {"compound": "Cc1ccc(C)c(Cn2cnc3c(nnn3-c3ccc(F)cc3)c2=O)c1", "Potency": "inconclusive: 2.91 µM [inhibitor, full curve]"},
      {"compound": "CC1Cc2cc(S(=O)(=O)N3CCN(c4ccccc4F)CC3)ccc2N1C(=O)C1CCC1", "note": "(stereo not given)", "Potency": "inconclusive: 11.2 µM [inhibitor, partial curve, poor fit]"},
      {"compound": "CCC(CC)c1nc(C#N)c(NCc2ccccc2)o1", "Potency": "inconclusive: 23.1 µM [inhibitor, partial curve, poor fit]"},
      {"compound": "O=C(/C=C/c1ccc(O)cc1)c1ccc(O)cc1O", "Potency": "inconclusive: 2.06 µM [activator, partial curve, poor fit]"},
      {"compound": "COc1ccc(C(=O)NCC(O)COc2ccc(C(C)(C)C)cc2)cc1[N+](=O)[O-]", "note": "(stereo not given)", "Potency": "inconclusive: 6.51 µM [inhibitor, partial curve, poor fit]"},
      {"compound": "CCCCn1c(=O)[nH]c(=O)c2c1nc(-c1ccc(OCCC)c(OCC)c1)n2CCOC", "Potency": "inconclusive: 1 µM [inhibitor, full curve, poor fit]"},
      {"compound": "Cc1ccc(C)c(OCC(O)CN2CCC(CN3C(=O)c4cccc5cccc(c45)C3=O)CC2)c1", "note": "(stereo not given)", "Potency": "inconclusive: 8.91 µM [inhibitor, partial curve, poor fit]"}
    ]}
  ]
}
